Data as given in PubChem BioAssay AID1224828 (NIAID, 2016)
Test: 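Knock-downs that increase or decrease LPS-induced p65 nuclear translocation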 (primary screen). Cells: mouse RAW264.7 G9 macrophage reporter cells (GFP-p65, Tnf promoter-mCherry). Knock-down reagent: siRNA pool against mouse genes, 100 nM. Duration: 2 days siRNA transfection, then 40 min LPS before fixation. Challenge: LPS (Salmonella minnesota R595) at 10 ng/ml. Detection: 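Microscopy ratio of nuclear to perinuclear-ring GFP-p65 signal, scaled to the plate median; gene score is the average of two replicate robust z-scores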. Scale: p65 translocation robust z-score: higher = more nuclear NF-kappaB p65 after LPS than the plate median; nuclear/cytoplasmic p65 ratio: higher = more nuclear NF-kappaB p65. Hit rule: 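Called active when z exceeds 3.3 or falls under -1.56 (median of Tlr4 controls), giving activity score of at least 50; no calls for control wells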. Calls: active = hit (p65 shift raised or lowered); inactive = no clear change.
Shown is a random part of about 17,000 reagents tested. Over the whole deposit, 762 (4.5%) got an active call. 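Active calls include both raised and lowered p65 entry, mostly lowered; wells with fewer than 50 cells lack a z-score.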 Raw values vary from plate to plate and are shown uncorrected.

target,p65 translocation robust z-score,"nuclear/cytoplasmic p65 ratio, rep 1","nuclear/cytoplasmic p65 ratio, rep 2",low cell count flag,activity call
Hhip (Hedgehog-interacting protein),1.77,1.98,1.74,enough cells to score,inactive
Eef1akmt1 (EEF1A alpha lysine methyltransferase 1),-0.68,1.33,1.35,enough cells to score,inactive
Adamts9 (ADAM metallopeptidase with thrombospondin type 1 motif 9),0.47,1.61,1.48,enough cells to score,inactive
"Pcdhgc4 (protocadherin gamma subfamily C, 4)",-1.83,1.17,1.05,enough cells to score,active
Stard13 (StAR related lipid transfer domain containing 13),-0.64,1.32,1.17,enough cells to score,inactive
"Col9a1 (collagen, type IX, alpha 1)",0.38,1.54,1.42,enough cells to score,inactive
Inhbe (inhibin beta-E),-1.34,1.42,1.2,enough cells to score,inactive
Map3k13 (mitogen-activated protein kinase kinase kinase 13),-1.4,1.45,1.38,enough cells to score,inactive
Inhca (inhibitor of carbonic anhydrase),-1.62,1.28,1.26,enough cells to score,active
Xpo1 (exportin 1),1.2,1.55,1.79,enough cells to score,inactive
Epha3 (Eph receptor A3),-0.02,1.65,1.41,enough cells to score,inactive
A330008L17Rik (RIKEN cDNA A330008L17 gene),-0.46,1.2,1.46,enough cells to score,inactive
Gps1 (G protein pathway suppressor 1),1.38,1.58,1.58,enough cells to score,inactive
Slc1a7,0.03,1.33,1.32,enough cells to score,inactive
Or9i14 (olfactory receptor family 9 subfamily I member 14),-0.78,1.44,1.36,enough cells to score,inactive
Eaf2 (ELL associated factor 2),0.64,1.65,1.36,enough cells to score,inactive
"Fam177a (family with sequence similarity 177, member A)",-1.23,1.34,1.26,enough cells to score,inactive
Or2v2 (olfactory receptor family 2 subfamily V member 2),-0.43,1.53,1.38,enough cells to score,inactive
"Ankrd13d (ankyrin repeat domain 13 family, member D)",,1.43,1.1,fewer than 50 cells per well; well left out of scoring,inactive
"Atp2b2 (ATPase, Ca++ transporting, plasma membrane 2)",-1.21,1.31,1.45,enough cells to score,inactive
"Tsc22d3 (TSC22 domain family, member 3)",-0.9,1.36,1.23,enough cells to score,inactive
Rufy2 (RUN and FYVE domain-containing 2),0.09,1.42,1.24,enough cells to score,inactive
Ddx27 (DEAD box helicase 27),0.5,1.61,1.66,enough cells to score,inactive
"Padi1 (peptidyl arginine deiminase, type I)",,1.25,1.4,fewer than 50 cells per well; well left out of scoring,inactive
"Ptpn12 (protein tyrosine phosphatase, non-receptor type 12)",-1.03,1.36,1.27,enough cells to score,inactive
Skap1 (src family associated phosphoprotein 1),0.72,1.89,1.4,enough cells to score,inactive
Cxcl13 (C-X-C motif chemokine ligand 13),-1.31,1.32,1.19,enough cells to score,inactive
"Grpel2 (GrpE-like 2, mitochondrial)",0.85,1.69,1.68,enough cells to score,inactive
A430057M04Rik (RIKEN cDNA A430057M04 gene),,1.17,1.26,fewer than 50 cells per well; well left out of scoring,inactive
Igf2bp3 (insulin-like growth factor 2 mRNA binding protein 3),1.45,1.65,1.54,enough cells to score,inactive
"Got2 (glutamatic-oxaloacetic transaminase 2, mitochondrial)",1.41,1.55,1.76,enough cells to score,inactive
"Il10ra (interleukin 10 receptor, alpha)",-0.6,1.39,1.27,enough cells to score,inactive
4930542C12Rik (RIKEN cDNA 4930542C12 gene),0.1,1.43,1.32,enough cells to score,inactive
Zbtb46 (zinc finger and BTB domain containing 46),0.82,1.38,1.64,enough cells to score,inactive
Cdc50a (cell division cycle 50 P4-ATPase accessory subunit A),,1.53,1.3,fewer than 50 cells per well; well left out of scoring,inactive
Tex56 (testis expressed 56),-0.42,1.31,1.46,enough cells to score,inactive
Or8k37 (olfactory receptor family 8 subfamily K member 37),-0.82,1.6,1.39,enough cells to score,inactive
Gfra2,-0.84,1.52,1.31,enough cells to score,inactive
Nfatc1,,1.3,1.07,fewer than 50 cells per well; well left out of scoring,inactive
Grep1 (glycine rich extracellular protein 1),0.99,1.67,1.59,enough cells to score,inactive
"Psmd2 (proteasome (prosome, macropain) 26S subunit, non-ATPase, 2)",,1.18,1.25,fewer than 50 cells per well; well left out of scoring,inactive
Ftsj3 (FtsJ RNA 2'-O-methyltransferase 3),2.11,1.94,1.71,enough cells to score,inactive
Adamtsl1 (ADAMTS-like 1),0.12,1.41,1.45,enough cells to score,inactive
Robo4 (roundabout guidance receptor 4),,1.39,1.16,fewer than 50 cells per well; well left out of scoring,inactive
AB124611 (cDNA sequence AB124611),-1.41,1.37,1.49,enough cells to score,inactive
2510039O18Rik (RIKEN cDNA 2510039O18 gene),-0.39,1.27,1.41,enough cells to score,inactive
"Itpk1 (inositol 1,3,4-triphosphate 5/6 kinase)",-0.94,1.4,1.26,enough cells to score,inactive
Or1e34 (olfactory receptor family 1 subfamily E member 34),,1.4,1.35,fewer than 50 cells per well; well left out of scoring,inactive
Or11g25 (olfactory receptor family 11 subfamily G member 25),,1.37,1.18,fewer than 50 cells per well; well left out of scoring,inactive
Cdk7 (cyclin dependent kinase 7),0.3,1.83,1.34,enough cells to score,inactive
Paip1 (polyadenylate binding protein-interacting protein 1),0.99,1.53,1.39,enough cells to score,inactive
"Tmprss12 (transmembrane (C-terminal) protease, serine 12)",,1.29,1.47,fewer than 50 cells per well; well left out of scoring,inactive
Tead1 (TEA domain family member 1),1.33,1.7,1.71,enough cells to score,inactive
4921536K21Rik (RIKEN cDNA 4921536K21 gene),,1.47,1.3,fewer than 50 cells per well; well left out of scoring,inactive
Ep400 (E1A binding protein p400),0.67,1.72,1.53,enough cells to score,inactive
Kbtbd4 (kelch repeat and BTB (POZ) domain containing 4),0.36,1.52,1.55,enough cells to score,inactive
Slc2a3,1.24,1.68,1.71,enough cells to score,inactive
"Cacnb3 (calcium channel, voltage-dependent, beta 3 subunit)",-0.37,1.67,1.58,enough cells to score,inactive
Dars1 (aspartyl-tRNA synthetase 1),-1.08,1.34,1.22,enough cells to score,inactive
